Measurements reported in PubChem BioAssay AID1224828 (NIAID, 2016).

Test: 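Knock-downs that increase or decrease LPS-induced p65 nuclear translocation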 (primary screen)
Cells: mouse RAW264.7 G9 macrophage reporter cells (GFP-p65, Tnf promoter-mCherry)
Knock-down reagent: siRNA pool against mouse genes, 100 nM
Timing: 2 days siRNA transfection, then 40 min LPS before fixation
Challenge: LPS (Salmonella minnesota R595) at 10 ng/ml
Measured: 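Imaged p65 nuclear translocation ratio, normalised to the plate median, converted to robust z-scores and averaged across two replicates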
Direction: p65 translocation robust z-score: higher = more nuclear NF-kappaB p65 after LPS than the plate median; nuclear/cytoplasmic p65 ratio: higher = more nuclear NF-kappaB p65
Hit rule: 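Called active when z exceeds 3.3 or falls under -1.56 (median of Tlr4 controls), giving activity score of at least 50; no calls for control wells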
Meaning of the calls: active = hit (p65 shift raised or lowered); inactive = no clear change
This is one part, drawn at random, of about 17,000 reagents tested. 762 of all reagents (4.5%) were called active. 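Active calls include both raised and lowered p65 entry, mostly lowered; wells with fewer than 50 cells lack a z-score.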 The raw values are shown without normalisation.

gene symbol	p65 translocation robust z-score	nuclear/cytoplasmic p65 ratio, rep 1	nuclear/cytoplasmic p65 ratio, rep 2	low cell count flag	outcome
Or3a4		1.47	1.47	fewer than 50 cells per well; well left out of scoring	inactive
Gba2	-0.9	1.42	1.38	enough cells to score	inactive
Tfg	0.12	1.51	1.56	enough cells to score	inactive
Mark3	-1.45	1.29	1.19	enough cells to score	inactive
Srbd1	1.33	1.86	1.83	enough cells to score	inactive
Gtf2h5	1.34	1.65	1.86	enough cells to score	inactive
Cspp1		1.4	1.26	fewer than 50 cells per well; well left out of scoring	inactive
Tcam1	1.02	1.5	1.12	enough cells to score	inactive
Ero1b		1.48	1.63	fewer than 50 cells per well; well left out of scoring	inactive
Jagn1	0.66	1.45	1.55	enough cells to score	inactive
Ca2	-0.34	1.54	1.59	enough cells to score	inactive
Otog	1.33	1.51	1.49	enough cells to score	inactive
Ripor1	-0.98	1.23	1.05	enough cells to score	inactive
Rad52	-0.22	1.49	1.48	enough cells to score	inactive
Wap	0.45	1.51	1.23	enough cells to score	inactive
Eml4		1.31	1.44	fewer than 50 cells per well; well left out of scoring	inactive

2 entries from above, sorted by “nuclear/cytoplasmic p65 ratio, rep 1”, descending.
gene symbol	p65 translocation robust z-score	nuclear/cytoplasmic p65 ratio, rep 1	nuclear/cytoplasmic p65 ratio, rep 2	low cell count flag	outcome
Rad52	-0.22	1.49	1.48	enough cells to score	inactive
Ripor1	-0.98	1.23	1.05	enough cells to score	inactive

Continued:
gene symbol	p65 translocation robust z-score	nuclear/cytoplasmic p65 ratio, rep 1	nuclear/cytoplasmic p65 ratio, rep 2	low cell count flag	outcome
Vmn1r211		1.36	1.13	fewer than 50 cells per well; well left out of scoring	inactive
Prdx5	0.36	1.42	1.26	enough cells to score	inactive
Nmbr	2.09	1.81	1.89	enough cells to score	inactive
S100a3	-0.74	1.42	1.75	enough cells to score	inactive
Ebag9	-0.74	1.41	1.23	enough cells to score	inactive
Necab3	0.91	1.76	1.62	enough cells to score	inactive
Matr3	-0.6	1.31	1.31	enough cells to score	inactive
Mamstr	-0.43	1.37	1.33	enough cells to score	inactive
